Results published in patent EP4806921A1 (Daan Biotherapeutics, Inc., dated 2026).
No constants are given. Whether binding was seen depends on the method and setting. Some results given as binding are weak or reduced against the parent protein; the word gives no strength.

Protein sequences, listed by entry. Tags and fused reporters are not part of them. Residues count along the entry.
UniProt P06731, residues 35-685: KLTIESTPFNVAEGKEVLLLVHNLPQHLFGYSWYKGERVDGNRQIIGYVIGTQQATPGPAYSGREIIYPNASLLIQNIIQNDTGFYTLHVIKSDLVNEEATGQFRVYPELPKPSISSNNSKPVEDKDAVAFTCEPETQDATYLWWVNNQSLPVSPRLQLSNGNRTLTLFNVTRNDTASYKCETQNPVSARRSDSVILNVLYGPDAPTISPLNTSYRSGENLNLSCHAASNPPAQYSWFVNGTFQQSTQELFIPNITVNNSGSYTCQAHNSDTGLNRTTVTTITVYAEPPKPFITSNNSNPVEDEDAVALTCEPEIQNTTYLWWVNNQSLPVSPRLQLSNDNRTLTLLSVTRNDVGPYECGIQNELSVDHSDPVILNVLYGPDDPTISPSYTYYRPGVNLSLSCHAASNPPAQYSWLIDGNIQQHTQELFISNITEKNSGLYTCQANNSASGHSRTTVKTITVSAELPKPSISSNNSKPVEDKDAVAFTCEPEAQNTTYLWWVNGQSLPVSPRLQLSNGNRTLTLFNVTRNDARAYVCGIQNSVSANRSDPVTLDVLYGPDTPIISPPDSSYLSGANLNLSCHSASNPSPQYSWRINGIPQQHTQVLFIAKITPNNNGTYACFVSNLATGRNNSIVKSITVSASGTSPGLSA

B1: humanized 81E3A8-02 antibody (antibody, V domains shown)
VH: QIQLVQSGSELKKPGASVKVSCKASGYTFTNFGMNWVRQAPGQGLEWMGWINTYTGKPTYDDDFKGRFVFSLDTSVSTAYLQISSLKAEDTAVYYCAREAGKDYAMDYWGQGTLVTVSS
VL: EIVLTQSPATLSLSPGERATLSCSASSSVTFMHWYQQKPGQAPRRLIYDTSKLASGIPARFSGSGSGTDYTLTISSLEPEDAAVYYCQQWNNYPWTFGGGTKVEIK
B2: humanized 81E3A8-06 antibody (antibody, V domains shown)
VH: QIQLVQSGSELKKPGASVKVSCKASGYTFTNFGMNWVRQAPGQGLEWMGWINTYTGKPTYDDDFKGRFVFSLDTSVSTAYLQISSLKAEDTAVYYCAREAGKDYAMDYWGQGTLVTVSS
VL: DIQLTQSPSTLSASVGDRVTITCSASSSVTFMHWYQQKPGKAPKRLIYDTSKLASGVPSRFSGSGSGTEYTLTISSLQPDDAATYYCQQWNNYPWTFGGGTKVEIK
B3: humanized 81E3A8-10 antibody (antibody, V domains shown)
VH: QIQLVQSGSELKKPGASVKVSCKASGYTFTNFGMNWVRQAPGQGLEWMGWINTYTGKPTYDDDFKGRFVFSLDTSVSTAYLQISSLKAEDTAVYYCAREAGKDYAMDYWGQGTLVTVSS
VL: EIVLTQSPATLSVSPGERATLSCSASSSVTFMHWYQQKPGQAPRRLIYDTSKLASGIPARFSGSGSGTEYTLTISSMQSEDAAVYYCQQWNNYPWTFGGGTKVEIK
B4: humanized 81E3A8-12 antibody (antibody, V domains shown)
VH: QIQLVQSGAEVKKPGASVKVSCKASGYTFTNFGMNWVRQAPGQGLEWMGWINTYTGKPTYDDDFKGRVTMTLDTSTSTAYMELRSLRSDDMAVYYCAREAGKDYAMDYWGQGTLVTVSS
VL: EIVLTQSPATLSVSPGERATLSCSASSSVTFMHWYQQKPGQAPRRLIYDTSKLASGIPARFSGSGSGTEYTLTISSMQSEDAAVYYCQQWNNYPWTFGGGTKVEIK
B5: humanized 81E3A8-14 antibody (antibody, V domains shown)
VH: QIQLVQSGSELKKPGASVKVSCKASGYTFTNFGMNWVRQAPGQGLEWMGWINTYTGKPTYDDDFKGRFVFSLDTSVSTAYLQISSLKAEDTAVYYCAREAGKDYAMDYWGQGTLVTVSS
VL: DIQLTQSPSSLSASVGDRVTITCSASSSVTFMHWYQQKPGKAPKRLIYDTSKLASGVPSRFSGSGSGTDYTLTISSLQPEDAATYYCQQWNNYPWTFGGGTKVEIK
B6: humanized 45A2E10-02 antibody (antibody, V domains shown)
VH: QVQLQESGPGLVKPSETLSLTCTVSGGSISNYGVHWIRQPPGKGLEWIGLIWAGGHTNYNSALMSRVTISKDNSKSQISLKLSSVTAADTAVYYCAREVRRDWYFDVWGQGTMVTVSS
VL: DIQMTQSPSSLSASVGDRVTITCRASENIYSYLTWYQQKPGKAPKLLIYNAKILAEGVPSRFSGSGSGTDFTLTISSLQPEDFATYYCQHHFGTPFTFGQGTKLEIK
B7: humanized 45A2E10-03 antibody (antibody, V domains shown)
VH: QVQLQESGPGLVKPSQTLSLTCAVYGGSFSNYGVHWIRQPPGKGLEWIGLIWAGGHTNYNSALMSRVTISKDNSKSQISLKLSSVTAADTAVYYCAREVRRDWYFDVWGQGTMVTVSS
VL: DIQMTQSPSSLSASVGDRVTITCRASENIYSYLTWYQQKPGKAPKLLIYNAKILAEGVPSRFSGSGSGTDFTLTISSLQPEDFATYYCQHHFGTPFTFGQGTKLEIK
B8: humanized 45A2E10-05 antibody (antibody, V domains shown)
VH: QVQLQESGPGLVKPSETLSLTCTVSGGSISNYGVHWIRQPPGKGLEWIGLIWAGGHTNYNSALMSRVTISKDNSKSQISLKLSSVTAADTAVYYCAREVRRDWYFDVWGQGTMVTVSS
VL: DIQMTQSPSTLSASVGDRVTITCRASENIYSYLTWYQQKPGKAPKLLIYNAKILAEGVPSRFSGSGSGTEFTLTISSLQPDDFATYYCQHHFGTPFTFGQGTKLEIK
B9: humanized 45A2E10-06 antibody (antibody, V domains shown)
VH: QVQLQESGPGLVKPSQTLSLTCAVYGGSFSNYGVHWIRQPPGKGLEWIGLIWAGGHTNYNSALMSRVTISKDNSKSQISLKLSSVTAADTAVYYCAREVRRDWYFDVWGQGTMVTVSS
VL: DIQMTQSPSTLSASVGDRVTITCRASENIYSYLTWYQQKPGKAPKLLIYNAKILAEGVPSRFSGSGSGTEFTLTISSLQPDDFATYYCQHHFGTPFTFGQGTKLEIK
B10: humanized 45A2E10-08 antibody (antibody, V domains shown)
VH: QVQLQESGPGLVKPSETLSLTCTVSGGSISNYGVHWIRQPPGKGLEWIGLIWAGGHTNYNSALMSRVTISKDNSKSQISLKLSSVTAADTAVYYCAREVRRDWYFDVWGQGTMVTVSS
VL: EIVMTQSPATLSVSPGERATLSCRASENIYSYLTWYQQKPGQAPRLLIYNAKILAEGIPARFSGSGSGTEFTLTISSLQSEDFAVYYCQHHFGTPFTFGQGTKLEIK
B11: humanized 45A2E10-09 antibody (antibody, V domains shown)
VH: QVQLQESGPGLVKPSQTLSLTCAVYGGSFSNYGVHWIRQPPGKGLEWIGLIWAGGHTNYNSALMSRVTISKDNSKSQISLKLSSVTAADTAVYYCAREVRRDWYFDVWGQGTMVTVSS
VL: EIVMTQSPATLSVSPGERATLSCRASENIYSYLTWYQQKPGQAPRLLIYNAKILAEGIPARFSGSGSGTEFTLTISSLQSEDFAVYYCQHHFGTPFTFGQGTKLEIK

These binders were tested against CEACAM5 recombinant protein (Biacore analyte) (UniProt P06731) (assay: SPR, Biacore 8K, antibody on protein A chip, CEACAM5 1.5625 to 200 nM).
B1 was tested, and the binding was “binds”.
B2 was tested, and the binding was “binds”.
B3 was tested, and the binding was “binds”.
With B4 the binding was “binds”.
B5 was tested, and the binding was “binds”.

What follows are binders tested against CEACAM5 recombinant protein (Biacore analyte) (UniProt P06731) (assay: SPR, Biacore 8K, antibody on protein A chip, CEACAM5 at 200 nM).
In the case of B6, the binding is reported as “binds”.
In the case of B7, the binding is reported as “binds”.
For B8, the binding was “binds”.
With B9 the binding was “binds”.
With B10 the binding was “binds”.
In the case of B11, the binding is reported as “binds”.
